Laboratory results from doi:10.1101/2024.11.15.622336.
No constants are given. Whether binding was seen depends on the method and setting. In cells and extracts the contact can be indirect. Some binding calls cover weakened binding; strength is not graded here. One block for each molecule: values may come before it.

Chains of the proteins cited; added tags and fusions are not shown.
UniProt P05556: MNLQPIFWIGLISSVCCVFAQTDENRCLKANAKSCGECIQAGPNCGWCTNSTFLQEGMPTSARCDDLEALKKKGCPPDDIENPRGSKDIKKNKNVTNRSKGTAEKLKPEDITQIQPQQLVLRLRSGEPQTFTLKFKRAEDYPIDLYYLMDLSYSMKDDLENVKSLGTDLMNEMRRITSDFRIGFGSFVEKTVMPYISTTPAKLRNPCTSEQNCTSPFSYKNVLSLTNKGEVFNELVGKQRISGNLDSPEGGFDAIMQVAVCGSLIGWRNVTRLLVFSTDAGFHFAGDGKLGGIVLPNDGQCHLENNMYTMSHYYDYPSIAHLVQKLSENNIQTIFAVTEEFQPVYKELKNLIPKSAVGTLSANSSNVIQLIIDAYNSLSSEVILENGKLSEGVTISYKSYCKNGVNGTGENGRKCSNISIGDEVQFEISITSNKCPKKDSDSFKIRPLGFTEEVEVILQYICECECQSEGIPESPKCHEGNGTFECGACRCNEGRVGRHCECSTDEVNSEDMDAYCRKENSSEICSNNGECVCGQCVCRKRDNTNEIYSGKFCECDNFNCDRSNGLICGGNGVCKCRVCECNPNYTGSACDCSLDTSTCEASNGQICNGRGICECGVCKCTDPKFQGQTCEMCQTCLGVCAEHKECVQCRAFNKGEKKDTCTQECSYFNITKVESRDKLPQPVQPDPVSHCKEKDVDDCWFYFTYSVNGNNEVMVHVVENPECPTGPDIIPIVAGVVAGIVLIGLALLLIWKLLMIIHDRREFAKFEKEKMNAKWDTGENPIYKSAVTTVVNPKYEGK
UniProt Q13418: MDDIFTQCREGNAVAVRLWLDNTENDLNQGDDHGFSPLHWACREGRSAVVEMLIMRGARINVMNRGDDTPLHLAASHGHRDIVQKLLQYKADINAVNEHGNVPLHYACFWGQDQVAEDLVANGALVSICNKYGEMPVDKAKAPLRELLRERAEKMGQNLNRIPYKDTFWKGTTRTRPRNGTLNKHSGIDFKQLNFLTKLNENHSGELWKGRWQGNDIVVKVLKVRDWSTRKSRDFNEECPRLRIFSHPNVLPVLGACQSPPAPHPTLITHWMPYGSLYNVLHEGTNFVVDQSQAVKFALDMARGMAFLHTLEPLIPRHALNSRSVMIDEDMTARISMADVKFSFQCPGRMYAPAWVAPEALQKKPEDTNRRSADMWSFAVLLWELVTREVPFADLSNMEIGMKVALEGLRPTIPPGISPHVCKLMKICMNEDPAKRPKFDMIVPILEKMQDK

What was measured:
[1] = target: T1, CCDC25 (human (endogenous in MIA PaCa-2)) (UniProt Q86WR0); experiment: co-IP
T1 sequence: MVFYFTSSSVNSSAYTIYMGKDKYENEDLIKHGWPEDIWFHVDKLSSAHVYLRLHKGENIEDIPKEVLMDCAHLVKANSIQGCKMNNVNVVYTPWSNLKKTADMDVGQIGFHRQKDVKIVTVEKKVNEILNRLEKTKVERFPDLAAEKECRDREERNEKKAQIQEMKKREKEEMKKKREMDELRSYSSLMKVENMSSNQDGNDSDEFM

[2] = target: beta1 integrin (ITGB1) (human (endogenous in MIA PaCa-2)) (UniProt P05556); experiment: co-IP

binding [1]: binds
Molecule: Integrin-Linked Kinase (ILK) (from UniProt Q13418 1-452)

binding [2]: binds
B1: CCDC25 (receptor, UniProt Q86WR0 1-208)
chain: T1 sequence
